# Source: PubChem BioAssay AID2685 (National Center for Advancing Translational Sciences (NCATS), 2010)
# Screen size: about 320,000 compounds; about 2,100 (0.66%) were called active. The inconclusive results got no clear call from the source; some entries with a clear call stand among them for comparison. Calls come from the whole dose curve; as a rule, active = well fitted inhibition curve with a large enough effect in the signal ratio, with a control signal flat (not every such curve was filed as active); inconclusive = small, poorly fitted or top-dose-only effect, or effect the other way, or a change in a side signal; inactive = flat fitted curve, though single readings scatter; the % refers to the signal ratio. Where the call is inconclusive, the potency comes from a doubtful curve fit.
# Assay: qHTS Assay for Lipid Storage Modulators in Drosophila S3 Cells
# Settings: BODIPY lipid droplet fluorescence, 18-24 h, cells fed with added oleic acid; lipid storage change, negative = inhibition: at 46.1 µM (top of the series) unless noted
# How it was run: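 Drosophila S3 cells got compounds at several concentrations plus oleic acid (400 uM solution). Laser-scanning cytometry with 488 nm excitation read lipid droplets at 500-530 nm and cells at 575-640 nm. Percent activity was relative to 20 uM Triacsin C.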
# % is set by controls: 0 for no effect and ±100 for the full control effect; potency is the fitted concentration of half-maximal effect.
SMILES,"lipid storage change, negative = inhibition",Potency
COc1cccc(/C=C2/Oc3ccccc3N(CC(=O)NCC3CCCO3)C2=O)c1 (stereo not drawn),inconclusive: -41.4%,
Cc1ccc(Cl)cc1NC(=O)Cn1c(C)csc1=O,,"inconclusive: 2.31 µM [activator, full curve]"
Nc1cccc(CCc2nc3cc4ccccc4cc3[nH]2)c1,,"inconclusive: 0.0651 µM [activator, full curve, poor fit]"
CCOC(=O)c1ccc(Nc2cc(C)nc3nc(C)nn23)cc1,inconclusive: 22.4%,
Cc1cccc(C)c1NS(=O)(=O)c1ccc(-c2cnc(C3CC3)o2)cc1,,"inconclusive: 29.1 µM [falling, single point]"
O=C(COc1ccc(S(=O)(=O)N2CCOCC2)cc1)Nc1cccc([N+](=O)[O-])c1,,"inconclusive: 35.5 µM [falling, single point]"
COc1ccc(CCNC2=NCCS2)cc1,inconclusive: 2.45%,
COC(=O)c1ccc2c(=O)n(Cc3ccco3)c(SCC(=O)Nc3ccc(C)c(Cl)c3)nc2c1,,"inconclusive: 0.651 µM [activator, single point]"
COC(=O)C1=C(C)N(Cc2ccco2)C(=O)/C1=C\c1ccc(N(C)C)cc1,,"inconclusive: 16.4 µM [activator, single point]"
COc1ccc(NC(=O)CCSCCc2ccccn2)cc1OC,inconclusive: 23.7% [at 9.22 µM],
CC(Sc1nc(N)cc(N)n1)C(=O)Nc1ccc(N2CCOCC2)cc1 (stereo not drawn),inconclusive: -13.9%,
COc1cc2c(cc1OC)CN(CC(=O)Nc1ccc(C)cc1)CC2,inconclusive: 31.2%,
O=C(CN1CCN(C/C=C/c2ccccc2)CC1)NCc1ccccc1,inconclusive: -17.7% [at 9.22 µM],
COc1ccc(CC(=O)OC(C)CN2CCCC2)cc1 (stereo not drawn),inconclusive: -2.4%,
COc1ccc(-c2nn(-c3ccccc3)cc2/C=C2/SC(=S)N(CCC(=O)O)C2=O)cc1,inconclusive: -36%,
Cc1cccc(C)c1Nc1c(-c2ccccn2)nc2ccccn12,inconclusive: -15%,
CN(Cc1nccn1C)C(=O)CC1C(=O)NCCN1CC(c1ccccc1)c1ccccc1 (stereo not drawn),inconclusive: -30.8%,
CC(NC(=O)c1cc(=O)[nH]c2ccccc12)c1ccccc1 (stereo not drawn),inconclusive: -5.54%,
CCC(NC(=O)CCc1c(C)c2cc3c4c(oc3cc2oc1=O)CCCC4)C(=O)O (stereo not drawn),inconclusive: -35.2%,
COc1ccc(NC(=O)N2CCC(n3cnc4ccccc43)CC2)cc1,inconclusive: -25.7%,
Cn1nnnc1SCc1csc(Nc2ccccc2)n1,inconclusive: 29.1%,
O=C(OCCOCCN=C1NS(=O)(=O)c2ccccc21)C1CC(=O)N(c2ccccc2)C1 (stereo not drawn),,active: 8.2 µM
CCC(CC)C(=O)N=C1SC2CS(=O)(=O)CC2N1CCc1ccc(OC)c(OC)c1 (stereo not drawn),inconclusive: 17.9%,
COc1ccc(NC(=O)CN2CCC3(O)CCCCC3C2c2cc(OC)ccc2OC)cc1 (stereo not drawn),inconclusive: 26.6%,

# Four entries drawn at random from those above:
SMILES,"lipid storage change, negative = inhibition",Potency
COc1ccc(NC(=O)N2CCC(n3cnc4ccccc43)CC2)cc1,inconclusive: -25.7%,
O=C(COc1ccc(S(=O)(=O)N2CCOCC2)cc1)Nc1cccc([N+](=O)[O-])c1,,"inconclusive: 35.5 µM [falling, single point]"
Cn1nnnc1SCc1csc(Nc2ccccc2)n1,inconclusive: 29.1%,
CC(Sc1nc(N)cc(N)n1)C(=O)Nc1ccc(N2CCOCC2)cc1 (stereo not drawn),inconclusive: -13.9%,

# (list continues)

SMILES,"lipid storage change, negative = inhibition",Potency
COc1cc(C(Nc2ccccn2)c2c(NC(=O)c3ccco3)sc(C)c2C)cc(OC)c1OC (stereo not drawn),inconclusive: -28.7%,
COc1ccc(CNC(=O)COC(=O)c2cccc(S(=O)(=O)N3CCOCC3)c2)cc1,inconclusive: 6.78%,
O=c1cc(C(F)(F)F)nc(-c2cccnc2)[nH]1,inconclusive: 9.2%,
O=C(c1ccc(Br)cc1)c1cc(-c2ccccn2)c(N2CCOCC2)s1,,"inconclusive: 0.366 µM [activator, full curve, poor fit]"
Cc1cc(NC(=O)Nc2ccccc2)n(-c2ccccc2)n1,,"inconclusive: 0.0046 µM [falling, full curve, poor fit]"
Cc1ccc(S(=O)(=O)NC(CC(=O)NCC2CCCO2)c2ccco2)cc1 (stereo not drawn),inconclusive: 3.08%,
CC(=O)CC(c1ccccc1)c1c(O)c2ccccc2oc1=O (stereo not drawn),inconclusive: 1.39%,
Cc1ccc2c(c1)C(c1ccccc1)N(C(=O)C(C)C)CC(=O)N2 (stereo not drawn),,"inconclusive: 6.51 µM [rising, partial curve]"
CC(C)(C)NC(=O)CSc1nc2[nH]ncc2c(=O)[nH]1,,"inconclusive: 0.0058 µM [falling, full curve, poor fit]"
CC1=C/C(=C(\c2cc(C)c(O)c(Br)c2)c2ccccc2S(=O)(=O)O)C=C(Br)C1=O,,"inconclusive: 0.0052 µM [activator, full curve, poor fit]"
N/C(=N\OC(=O)c1ccc(Cl)cc1)c1[nH]ncc1Br,,"inconclusive: 0.82 µM [falling, single point]"
CNC(=O)c1ccc(-c2sc3nc(N4CCOCC4)c4c(c3c2N)CC(C)(C)OC4)o1,inconclusive: -5.38%,
O=C(Oc1ccc2ccccc2c1)C1CCC1,inconclusive: 50%,
COc1cccc(C2C(C#N)=C(N)N(N(C)C)C3=C2C(=O)CC(C)(C)C3)c1 (stereo not drawn),inconclusive: 12.6%,
COC(=O)c1c(NC(=O)CN2CCN(C(=O)c3ccco3)CC2)c2cc(C)ccc2n1C,inconclusive: -21.4%,
COC(=O)c1nnc(-c2ccccc2)c(-c2ccccc2)n1,,"inconclusive: 1.64 µM [falling, partial curve, poor fit]"
C/C=C/C(=O)Nc1cccc(C2=NOC3(C2)C[C@@H](C(N)=O)N(C(=O)/C(C)=C/C)C3)c1 (stereo partly drawn),inconclusive: 10.6%,
C1CCN(c2nc3nonc3nc2NCC2CCOCC2)CC1,inconclusive: 12.4%,
O=C(Cn1ncc2c3ccccc3n(Cc3cccc(Cl)c3)c2c1=O)NCc1ccccn1,,"inconclusive: 29.1 µM [activator, single point]"
CC1CCCC(C)N1C(=O)c1cc(-c2ccc3c(c2)OCO3)on1 (stereo not drawn),inconclusive: -44.4%,
Cn1cccc1/C=N/N1CCN(Cc2ccccc2)CC1,inconclusive: -4.83%,
O=C(NCCc1ccccc1)c1ccc2nc(N3CCOCC3)sc2c1,inconclusive: 74.5%,
CCOc1ccc(OCC)c(NC(=O)C2CCCN2S(=O)(=O)c2cccc3cccnc23)c1 (stereo not drawn),inconclusive: -0.55%,
O=C(c1ccccc1Cc1ccccc1)N1CCN(S(=O)(=O)c2ccccc2)CC1,inconclusive: -100%,
